Measurements reported in PubChem BioAssay AID1508597 (Cure First, 2020)

Assay: 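Knock-downs altering ovarian cancer cell survival with or without PARP inhibitor rucaparib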 (primary screen)
System: human ovarian carcinoma lines grown from tumours: OCI-P5x (papillary serous) and OCI-C5x (clear cell)
Reagents: siRNA pool against human genes, 1.25 pmol siRNA per well
Duration: 72 h or 96 h, depending on the cell culture
Treatment: rucaparib 20 µM (about IC30) or vehicle, present until read-out
Rucaparib or vehicle: Vehicle
Cell line: OCI-C5x (clear cell)
Detection: 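ATP luminescence measured at 72 or 96 h according to the culture, then normalised and expressed as percent viability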
Scale: viability, normalised: higher = more viable cells remaining
Hit rule: 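Active when normalised viability falls below 80 percent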
Calls: active = viability under 80%; inactive = viability 80% or more
Shown is an unselected part of the about 2,100 reagents, in one setting of the screen. 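Calls flag viability under 80% in either arm, not effects specific to rucaparib; the reference for percent is not stated.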 A reagent listed more than once was tested more than once; the source does not tell the runs apart. The record does not give: the 100% reference.

CAMK4 (calcium/calmodulin dependent protein kinase IV), technical replicate 1: viability, normalised (%) = 82.1; call = inactive
CAMK4 (calcium/calmodulin dependent protein kinase IV), technical replicate 2: viability, normalised (%) = 58.5; call = active
CAMK4 (calcium/calmodulin dependent protein kinase IV), technical replicate 3: viability, normalised (%) = 76.2; call = active
DDB1 (damage specific DNA binding protein 1), technical replicate 1: viability, normalised (%) = 30.5; call = active
DDB1 (damage specific DNA binding protein 1), technical replicate 1: viability, normalised (%) = 45.3; call = active
DDB1 (damage specific DNA binding protein 1), technical replicate 2: viability, normalised (%) = 34.3; call = active
DDB1 (damage specific DNA binding protein 1), technical replicate 2: viability, normalised (%) = 44.6; call = active
DDB1 (damage specific DNA binding protein 1), technical replicate 3: viability, normalised (%) = 56.3; call = active
DDB1 (damage specific DNA binding protein 1), technical replicate 3: viability, normalised (%) = 37.6; call = active
SOX1 (SRY-box transcription factor 1), technical replicate 1: viability, normalised (%) = 43.9; call = active
SOX1 (SRY-box transcription factor 1), technical replicate 2: viability, normalised (%) = 32.1; call = active
SOX1 (SRY-box transcription factor 1), technical replicate 3: viability, normalised (%) = 49.6; call = active
CLDN4 (claudin 4), technical replicate 1: viability, normalised (%) = 32; call = active
CLDN4 (claudin 4), technical replicate 2: viability, normalised (%) = 30.7; call = active
CLDN4 (claudin 4), technical replicate 3: viability, normalised (%) = 35.1; call = active
KHK (ketohexokinase), technical replicate 1: viability, normalised (%) = 50; call = active
KHK (ketohexokinase), technical replicate 2: viability, normalised (%) = 51.3; call = active
KHK (ketohexokinase), technical replicate 3: viability, normalised (%) = 45.4; call = active
RTEL1 (regulator of telomere elongation helicase 1), technical replicate 1: viability, normalised (%) = 41.9; call = active
RTEL1 (regulator of telomere elongation helicase 1), technical replicate 2: viability, normalised (%) = 36.8; call = active
RTEL1 (regulator of telomere elongation helicase 1), technical replicate 3: viability, normalised (%) = 47.5; call = active
TIE1, technical replicate 1: viability, normalised (%) = 60.8; call = active
TIE1, technical replicate 1: viability, normalised (%) = 50.8; call = active
TIE1, technical replicate 2: viability, normalised (%) = 49.1; call = active
TIE1, technical replicate 2: viability, normalised (%) = 47.8; call = active
TIE1, technical replicate 3: viability, normalised (%) = 36.2; call = active
TIE1, technical replicate 3: viability, normalised (%) = 47.9; call = active
BACC1 (BPTF associated chromatin complex component 1), technical replicate 1: viability, normalised (%) = 53.8; call = active
BACC1 (BPTF associated chromatin complex component 1), technical replicate 1: viability, normalised (%) = 60.7; call = active
BACC1 (BPTF associated chromatin complex component 1), technical replicate 2: viability, normalised (%) = 32.5; call = active
BACC1 (BPTF associated chromatin complex component 1), technical replicate 2: viability, normalised (%) = 59.9; call = active
BACC1 (BPTF associated chromatin complex component 1), technical replicate 3: viability, normalised (%) = 41.8; call = active
BACC1 (BPTF associated chromatin complex component 1), technical replicate 3: viability, normalised (%) = 53.6; call = active
